At least one compound was matched to its structure with a doubt left. Some compounds share one wording; it may come from a single statement.
Legend:
[1] = system: chromatin-bound RPA; assay: Chromatin-bound RPA (single-stranded DNA) by high-throughput microscopy; format: cell-based; conditions: 1 μM; for level of chromatin-bound RPA: compound alone
[2] = system: U2OS human cells; assay: Cell cycle / DNA content by flow cytometry after stalling of replication forks; format: cell-based; conditions: 1 μM, 16 h; for cell cycle distribution after previous exposure to HU: 2 mM HU
[3] = system: 53BP1 foci; assay: Nuclear foci of DNA repair protein 53BP1 (collapse of stalled forks); format: cell-based, human; conditions: 1 μM

Compound	level of chromatin-bound RPA [1]	level of chromatin-bound RPA in combination with HU [1]	cell cycle distribution (DNA content) [2]	cell cycle distribution after previous exposure to HU [2]	formation of 53BP1 foci ([3]; cells treated with HU (2 mM))	formation of 53BP1 foci ([3]; cells treated as in a)
CC(C)(c1nc(-c2cccc3[nH]ccc23)nc2c1OCC1COCCN21)S(C)(=O)=O (stereo not shown) [Example 1]	can increase chromatin-bound RPA levels	greatly exacerbated in the presence of HU	accumulation of cells in the G2 phase	greatly enhanced if previously exposed to HU	massive formation of 53BP1 foci	
CS(=O)(=O)C1(c2nc(-c3cccc4[nH]ccc34)nc3c2OCC2COCCN32)CCOCC1 (stereo not shown) [Example 2]	can increase chromatin-bound RPA levels	greatly exacerbated in the presence of HU	accumulation of cells in the G2 phase	greatly enhanced if previously exposed to HU	massive formation of 53BP1 foci	
CS(=O)(=O)C1(c2nc(-c3cccc4[nH]ccc34)nc3c2OC[C@@H]2COCCN32)CCOCC1 [Example 3]	can increase chromatin-bound RPA levels		intra-S phase accumulation of cells			massive formation of 53BP1 foci
CNc1nc2ccccc2n1-c1nc2c(c(C(C)(C)S(C)(=O)=O)n1)OC[C@@H]1COCCN21 [Example 11]	can increase chromatin-bound RPA levels		intra-S phase accumulation of cells			massive formation of 53BP1 foci

Source: patent US9453031B2, “Chemical entities” (Fundación Centro Nacional de Investigaciones Oncológicas …, priority 2013, dated 2016)
